Results deposited as PubChem BioAssay AID1259308 (NCATS, 2017)

Screen: 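Genes whose loss raises luciferase production in HEK293 cells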 (primary screen)
System: human HEK293 embryonic kidney cells stably expressing firefly luciferase (HEK-CMV-Luc2-Hygro)
Reagents: single siRNA against human genes, 0.8 pmol siRNA per well
Duration: 72 h
Measurement: 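Luciferase light (ONE-Glo) measured on one replicate plate set and viability (CellTiter-Glo) on the other, scaled to a negative control siRNA, with robust z-scores and luciferase per cell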
Reading the numbers: total luciferase, z-score and total luciferase, % of control: higher = more reporter protein produced; luciferase per cell, z-score: higher = more reporter output per viable cell; viable cells, % of control: higher = more viable cells
Active means: 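Active when the median/MAD z-score for overall luciferase is greater than 3; a gene was taken forward for validation with new siRNAs if at least two of its three siRNAs passed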
Calls: active = raised luciferase; inactive = no rise
This is an unselected part of about 59,000 reagents. Of all reagents, about 1,510 (2.6%) got an active call. 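Calls use total luciferase alone and ignore viability, so some active siRNAs may act by altering cell number.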 Entries without a mark were called inactive. Reagents against one gene are numbered here. No sequences are given here.

no.	gene knocked down	reagent no.	total luciferase, z-score	total luciferase, % of control	luciferase per cell, z-score	viable cells, % of control
1	U2AF2	1	4.36 (active)	169	4.74	54.1
2	U2AF2	2	2.18	125	2.75	67.9
3	U2AF2	3	3.61 (active)	154	4.3	55.4
4	HGSNAT	1	-0.749	67	-1.29	105
5	HGSNAT	2	2.8	138	3.17	66.7
6	HGSNAT	3	0.341	88.7	-0.0337	100
7	CKAP4	1	2.5	132	3.06	65.7
8	CKAP4	2	0.00754	82	0.341	83.8
9	CKAP4	3	-0.162	78.7	-0.785	108
10	CKAP4	4	0.312	88.1	0.173	94.1
11	CKAP4	5	-0.497	72	-0.385	89
12	CKAP4	6	-0.374	74.5	-0.104	85.5
13	GSG1L2	1	-0.418	73.6	-0.739	99.9
14	GSG1L2	2	-0.21	77.7	-0.363	95.6
15	GSG1L2	3	0.00826	82.1	-0.823	114

Continued, starting with the last 2 of the part before.
no.	gene knocked down	reagent no.	total luciferase, z-score	total luciferase, % of control	luciferase per cell, z-score	viable cells, % of control
14	GSG1L2	2	-0.21	77.7	-0.363	95.6
15	GSG1L2	3	0.00826	82.1	-0.823	114
16	KREMEN2	1	-0.598	70	-0.361	86
17	KREMEN2	2	0.133	84.5	0.508	82.6
18	KREMEN2	3	1.45	111	1.22	89.8
19	DUSP21	1	-0.442	73.1	-0.0775	83.4
20	DUSP21	2	-0.905	63.9	-1.06	94.3
21	DUSP21	3	0.026	82.4	0.0182	91.6
22	PSMD4	1	2.21	126	2.46	73.5
23	PSMD4	2	1.75	117	1.74	82.6
24	PSMD4	3	2.38	129	2.01	85.1
